No constants are given. Whether binding was seen depends on the method and setting. Binding seen in cells or lysates may run through a third protein. Some entries that bind do so weakly or less than the wild type.

By UniProt entry, the sequences of proteins in these tests, tags left out. Where a name states a change or a piece, a line headed by the entry shows the natural chain unless it says otherwise. Chains listed by the source or under a name are the forms on record and can include a tag or linker. Residues count along the entry.
UniProt P00441: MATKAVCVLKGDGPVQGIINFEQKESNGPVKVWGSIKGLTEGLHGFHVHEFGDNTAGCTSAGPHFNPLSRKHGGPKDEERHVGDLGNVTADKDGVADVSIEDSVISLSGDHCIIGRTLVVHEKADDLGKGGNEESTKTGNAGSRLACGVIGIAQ
Flag-tagged SOD1^G85R (P00441, form named): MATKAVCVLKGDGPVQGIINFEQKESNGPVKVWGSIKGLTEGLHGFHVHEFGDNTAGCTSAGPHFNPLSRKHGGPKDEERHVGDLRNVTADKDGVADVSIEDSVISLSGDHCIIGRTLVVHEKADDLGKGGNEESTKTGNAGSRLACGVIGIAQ
Flag-tagged SOD1^G93A (P00441, form named): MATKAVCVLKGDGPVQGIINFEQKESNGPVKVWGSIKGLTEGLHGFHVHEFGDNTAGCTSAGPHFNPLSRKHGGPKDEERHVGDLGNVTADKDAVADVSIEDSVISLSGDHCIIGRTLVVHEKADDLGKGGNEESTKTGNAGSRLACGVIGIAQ
Flag-tagged SOD1^A4V (P00441, form named): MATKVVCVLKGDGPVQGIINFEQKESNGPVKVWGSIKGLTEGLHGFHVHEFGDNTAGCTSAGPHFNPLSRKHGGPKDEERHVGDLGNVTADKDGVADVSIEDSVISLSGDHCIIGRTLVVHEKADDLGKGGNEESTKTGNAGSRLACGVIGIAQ
Flag-tagged SOD1^V148G (P00441, form named): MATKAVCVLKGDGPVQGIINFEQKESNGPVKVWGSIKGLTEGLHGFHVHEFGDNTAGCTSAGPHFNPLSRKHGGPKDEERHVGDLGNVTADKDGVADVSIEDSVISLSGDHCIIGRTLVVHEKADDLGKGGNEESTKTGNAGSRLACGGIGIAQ
Flag-tagged SOD1^V148I (P00441, form named): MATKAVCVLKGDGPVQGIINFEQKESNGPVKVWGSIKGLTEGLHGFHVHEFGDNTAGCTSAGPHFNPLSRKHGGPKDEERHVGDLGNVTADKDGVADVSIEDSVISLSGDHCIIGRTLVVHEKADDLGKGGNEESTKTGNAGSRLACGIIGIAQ
Myc-tagged TRAF6^ΔC (aa. 1-288) (Q9Y4K3, residues 1-288): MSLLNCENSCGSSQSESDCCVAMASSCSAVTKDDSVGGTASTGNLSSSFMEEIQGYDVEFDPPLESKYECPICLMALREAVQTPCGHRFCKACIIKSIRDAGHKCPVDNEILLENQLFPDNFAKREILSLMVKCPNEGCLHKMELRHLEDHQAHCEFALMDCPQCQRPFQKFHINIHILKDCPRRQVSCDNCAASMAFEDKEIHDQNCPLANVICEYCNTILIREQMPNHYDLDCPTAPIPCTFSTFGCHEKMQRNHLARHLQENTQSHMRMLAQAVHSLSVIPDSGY
Myc-tagged TRAF6^ΔN (aa. 289-522) (Q9Y4K3, residues 289-522): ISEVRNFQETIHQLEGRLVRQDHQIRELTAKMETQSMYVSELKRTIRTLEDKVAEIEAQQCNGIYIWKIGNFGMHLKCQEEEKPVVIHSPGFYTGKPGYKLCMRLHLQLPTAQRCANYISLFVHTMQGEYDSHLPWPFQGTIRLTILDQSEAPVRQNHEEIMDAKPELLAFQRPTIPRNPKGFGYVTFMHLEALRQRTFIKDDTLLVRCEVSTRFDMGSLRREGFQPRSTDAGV

Experimental findings from doi:10.1101/780460 are described below.

Holding throughout (assay): co-IP
Test [1] deals with Flag-tagged SOD1 wild type (human) (UniProt P00441).
The target in test [2] is Flag-tagged SOD1^G85R (human) (UniProt P00441).
In test [3] the target is Flag-tagged SOD1^G93A (human) (UniProt P00441).
Test [4] has as its target Flag-tagged SOD1^A4V (human) (UniProt P00441).
For test [5], the target named is Flag-tagged SOD1^V148G (human) (UniProt P00441).
For test [6], the target named is Flag-tagged SOD1^V148I (human) (UniProt P00441).

“Myc-tagged TRAF6^ΔC (aa. 1-288) (from UniProt Q9Y4K3 1-288) (domain or fragment)”: the binding result in test [1], in test [2] and in test [3] was “no binding” each time.
Take “Myc-tagged TRAF6^ΔN (aa. 289-522) (from UniProt Q9Y4K3 289-522) (domain or fragment)”: the binding entry in test [1] was “no binding”; in test [4] it was “binds”; in test [2], “binds”; in test [3], “binds”; in test [5], “binds”; in test [6] it was “no binding”.
